We go through one molecule from patent US20260159812A1.

Results are given in words; binding and its absence hold for the method and conditions named. In cells and extracts the contact can be indirect. These calls come from enrichment with a bait or labelling near it, and not all partners need be listed.

The target of this experiment is Histone H2a (mouse). As to the kind of experiment: miniTurbo proximity biotinylation (BioID) in MEFs, streptavidin pulldown and proteomics; proximity, not direct binding.

B1: PHF7^miniTurbo (protein)
chain: MKTVKEKKECQRLRKSAKTRRVTQRKPSSGPVCWLCLREPGDPEKLGEFLQKDNISVHYFCLILSSKLPQRGQSNRGFHGFLPEDIKKEAARASRKICFVCKKKGAAINCQKDQCLRNFHLPCGQERGCLSQFFGEYKSFCDKHRPTQNIQHGHVGEESCILCCEDLSQQSVENIQSPCCSQAIYHRKCIQKYAHTSAKHFFKCPQCNNRKEFPQEMLRMGIHIPDRDAAWELEPGAFSDLYQRYQHCDAPICLYEQGRDSFEDEGRWCLILCATCGSHGTHRDCSSLRSNSKKWECEECSPAAATDYIPENSGDIPCCSSTFHPEEHFCRDNTLEENPGLSWTDWPEPSLLEKPESSRGRRSYSWRSKGVRITNSCKKSK
Turning to B1, the binding result was “binds”.
